Patent publication US12522614B2, “Topical phosphoinositide 3-kinase inhibitors” (VENTHERA, INC., priority 2019, dated 2026)
Some entries share one result that the patent states for a list of compounds.

Assay: In vitro human skin permeation study of topical gel formulations (Franz diffusion cells)
Assay type: in vitro ADME
Conditions: Study-7, saturated gel formulations

CCCCCCCCCC(=O)Oc1cccc(-c2nc(N3CCOCC3)c3sccc3n2)c1 [Compound 1.008, 3-(4-Morpholinothieno[3,2-d]pyrimidin-2-yl)phenyl Decanoate]
Skin permeation as compared to the permeation of Compound 1.002: less than 10%

CCCCCCCC/C=C\CCCCCCCC(=O)Oc1cccc(-c2nc(N3CCOCC3)c3sccc3n2)c1 [Compound 1.011, 3-(4-Morpholinothieno[3,2-d]pyrimidin-2-yl)phenyl Oleate]
Skin permeation as compared to the permeation of Compound 1.002: less than 10%

O=C(/C=C/c1ccccc1)Oc1cccc(-c2nc(N3CCOCC3)c3sccc3n2)c1 [Compound 1.014, 3-(4-Morpholinothieno[3,2-d]pyrimidin-2-yl)phenyl Cinnamate]
Skin permeation as compared to the permeation of Compound 1.002: less than 10%
